Results as given in PubChem BioAssay AID2685 (National Center for Advancing Translational Sciences (NCATS), 2010).
In all, about 320,000 compounds went through this assay and about 2,100 (0.66%) were called active. The inconclusive results got no clear call from the source; some entries with a clear call stand among them for comparison. Calls come from the whole dose curve; as a rule, active = well fitted inhibition curve with a large enough effect in the signal ratio, with a control signal flat (not every such curve was filed as active); inconclusive = small, poorly fitted or top-dose-only effect, or effect the other way, or a change in a side signal; inactive = flat fitted curve, though single readings scatter; the % refers to the signal ratio. Potencies of inconclusive entries are doubtful fits and often do not repeat.

Assay: qHTS Assay for Lipid Storage Modulators in Drosophila S3 Cells
Conditions: BODIPY lipid droplet fluorescence, 18-24 h, cells fed with added oleic acid; lipid storage change, negative = inhibition: at 46.1 µM (top of the series) unless noted
In short: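 Drosophila S3 cells got compounds at several concentrations plus oleic acid (400 uM solution). Laser-scanning cytometry with 488 nm excitation read lipid droplets at 500-530 nm and cells at 575-640 nm. Percent activity was relative to 20 uM Triacsin C.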
% is set by controls: 0 for no effect and ±100 for the full control effect; potency is the fitted concentration of half-maximal effect.

Potency, inconclusive:
COc1ccc(C(=O)N2CCN(c3c(C)cccc3C)CC2)cc1OC 0.651 µM [activator, full curve]
CC(=O)N1c2ccc(S(=O)(=O)N3CCCC(C(=O)N4CCCCC4)C3)cc2CC1C (centres undefined) 20.6 µM [falling, partial curve]
O=C(C1COc2ccccc2O1)N1CCn2c(nc3ccccc32)C1 (centres undefined) 0.13 µM [falling, full curve]
COc1ccc(OC(C)C(=O)Nc2cccc(OC)c2)cc1 (centres undefined) 6.51 µM [falling, single point]
CCC(C)NC(=O)CS(=O)Cc1nc(-c2cccc(OC)c2)oc1C (centres undefined) 18.4 µM [activator, single point]
CC(C)N(C(=O)CSc1nnc(Cn2nnc3ccccc32)n1C)C(C)C 29.1 µM [falling, single point]
CCOc1ccc2nc(SCC(=O)Nc3cc(C)on3)c(C)cc2c1 13 µM [activator, partial curve]
Cc1noc(C)c1CSc1cc(C)c2ccccc2n1 3.26 µM [activator, single point]
CN1C(=O)N(C)C2(c3ccccc3)NNC(N)=NC12c1ccccc1 (centres undefined) 0.92 µM [falling, single point]
C=CCNC1=C(Cl)C(=O)N(c2cccc(Cl)c2Cl)C1=O 0.103 µM [activator, single point]
O=C(COC(=O)/C=C/c1ccccc1)NC1CC1 16.4 µM [activator, single point]
CCc1ccc(NC(=O)C2=CC(c3ccc(OC)c(OC)c3)=NS(=O)(=O)N2C)cc1 5.8 µM [falling, full curve]
C/C(=N\NC(=O)c1ccccc1)c1ccccc1Br 29.1 µM [activator, single point]
Cc1ccnc(NCc2ccccc2O)c1 0.517 µM [activator, partial curve, poor fit]
O=C(O)CC1=C(O)C(=O)N(c2ccccc2)C1c1ccc(Cl)cc1 (centres undefined) 1.64 µM [falling, partial curve, poor fit]
CC(=O)c1c(C)[nH]c(C(=O)OCc2cc(=O)n3cc(Br)ccc3n2)c1C 1.84 µM [activator, partial curve]

Lipid storage change, negative = inhibition, inactive:
COc1cc(C(=O)NCC(=O)OCC(=O)Nc2ncc(Cl)cc2Cl)cc(OC)c1OC
CCOc1ccc(C(C)=O)cc1CN1C(=O)NC2(CCCCC2C)C1=O (centres undefined)

Lipid storage change, negative = inhibition, inconclusive:
CCNC(=O)COc1ccc(CC)cc1 189%
Cc1noc(C)c1C(=O)Nc1ccccn1 -35.2%
Cc1csc(-c2cnn(-c3ccccc3)c2NC(=O)c2ccc(C(F)(F)F)cc2)n1 6.61%
COc1ccc(C(=O)Oc2coc(CSc3nnc(NC(=O)c4cccs4)s3)cc2=O)cc1 -34.4%
Cn1c(SCCOc2ccccc2F)nc2ccccc2c1=O -0.694%
Cc1ccc(NC(=O)c2ccc(S(=O)(=O)N3CCCC3)cc2)nc1 35.5% [at 0.0737 µM]
O=C(c1ccc(Cl)c(S(=O)(=O)N2CCOCC2)c1)N1CCN(c2ccccc2)CC1 -43.3%
O=C1C=C(c2ccc3ccccc3c2)C[C@@H](c2ccc(Cl)cc2)C1 -5.24%
CCc1ccc(C(=O)COC(=O)c2n[nH]c3ccccc23)cc1 16.7%
C/C(=N\NC(=O)c1cccc(S(=O)(=O)N2CCCC2)c1)c1ccc(F)cc1 1.64%
Cc1ccccc1NC(=O)NCc1ccc2c(c1)OCO2 -7.13%
O=C1/C(=C/c2cccs2)Sc2ccccc21 -14.1%
NS(=O)(=O)c1ccc(NC(=O)CCc2ccccc2)cc1 21.3%
Cc1ccc2c(c1)N(S(=O)(=O)c1cc(-c3onc(C)c3C)ccc1C)CCO2 4.77%
COc1ccccc1NS(=O)(=O)c1ccc(C)c(C(=O)NC2=NCCS2)c1 9.02%
O=C(CNc1cccc([N+](=O)[O-])c1)N/N=C/c1ccc([N+](=O)[O-])o1 -99.3%
Cc1ccc(NC(=O)/C(=C\c2ccccc2)NC(=O)/C=C/c2ccccc2)cc1 -33.1%
CC1(C)CC(=O)C2=C(C1)N(Cc1cccnc1)C(=O)C2(NC(=O)C1CC1)C(F)(F)F (centres undefined) -77.1%
O=C(OCCOc1cccc(Cl)c1)c1cc(S(=O)(=O)N2CCOCC2)ccc1F 9.08%
CCn1ncc(C2=NOC(C(=O)Nc3ccccc3C(=O)OC)C2)c1C (centres undefined) 12.7%
COc1ccc(-c2cc3ccccc3oc2=O)cc1NC(=O)c1ccc(Br)o1 6.5%
O=C(CCS(=O)(=O)c1ccccc1)OCc1ccc([N+](=O)[O-])cc1 22.6%
Cc1cccc(OCC(=O)N(Cc2ccco2)C2CCS(=O)(=O)C2)c1 (centres undefined) -1.7%
O=c1c2c3c(sc2n(CCN2CCCC2)c(=O)n1Cc1ccccc1)CCCCC3 25.5%
Cc1cccc(OCC(=O)N/N=C\c2cccn2C)c1C 1.24%
Cn1cc(CNCC2CCCO2)c(-c2ccc(Oc3ccccc3)cc2)n1 (centres undefined) 11.3%
COc1ccc(CC(=O)N(Cc2ccccc2)c2ccc(C)cc2)cc1OC 33.5%
C[n+]1ccccc1/C=N/O -4.08%
CCOC(=O)C(CC(C)C)CP(=O)(O)CNC(=O)OCc1ccccc1 (centres undefined) -14.3%
CCCN(C(=O)c1cc(CC)c(C)s1)c1c(N)n(Cc2ccccc2)c(=O)[nH]c1=O -0.163%
O=C1N/C(=C/c2ccc(Br)cc2)C(O)=C1C=NCc1ccccc1 -2.9%

Ordered by molecular weight (ascending): 11 of the compounds above
Lipid storage change, negative = inhibition, inconclusive:
CCNC(=O)COc1ccc(CC)cc1 189%
Cc1noc(C)c1C(=O)Nc1ccccn1 -35.2%
Cc1ccccc1NC(=O)NCc1ccc2c(c1)OCO2 -7.13%
NS(=O)(=O)c1ccc(NC(=O)CCc2ccccc2)cc1 21.3%
Cn1c(SCCOc2ccccc2F)nc2ccccc2c1=O -0.694%
O=C1C=C(c2ccc3ccccc3c2)C[C@@H](c2ccc(Cl)cc2)C1 -5.24%
Cn1cc(CNCC2CCCO2)c(-c2ccc(Oc3ccccc3)cc2)n1 (centres undefined) 11.3%
Cc1ccc2c(c1)N(S(=O)(=O)c1cc(-c3onc(C)c3C)ccc1C)CCO2 4.77%
CCCN(C(=O)c1cc(CC)c(C)s1)c1c(N)n(Cc2ccccc2)c(=O)[nH]c1=O -0.163%
Cc1csc(-c2cnn(-c3ccccc3)c2NC(=O)c2ccc(C(F)(F)F)cc2)n1 6.61%
O=C(c1ccc(Cl)c(S(=O)(=O)N2CCOCC2)c1)N1CCN(c2ccccc2)CC1 -43.3%
